Reference: patent US20210147525A1 (University of California, published 2021)

Target: human PLXDC1 protein, biotinylated (bait of the antibody library screen) (human)
Experiment: antibody library screen on biotinylated PLXDC1 with activating compound

| Binder | binding |
| --- | --- |
| 3-H4 (antibody, V domains shown) VH: EVQLLESGGGLVQPGGSLRLSCAASGFTFSNYAMSWVRQAPGKGLEWVSAISGSGGTTYYADSVKGRFTISRDNSKNTLYLQMNSLRAEDTAVYYCARIKKYGSAGYTVGFDSWGQGTLVTVSS VL: EIVMTQSPATLSVSPGERATLSCRASQSVGSYLAWYQQKPGQAPRLLIYGASTRATGIPARFSGSGSGTEFTLTISSLQSEDFAVYYCQQYYNAPITFGQGTKVEIK | binds |
| 4-A7 (antibody, V domains shown) VH: QLQLQESGPGLVKPSETLSLTCTVSGGSISSSSYYWGWIRQPPGKGLEWIGNIYYTGTTYYNPSLKSRVTISVDTSKNQFSLKLSSVTAADTAVYYCARIKVPWYYSSYYFDYWGQGTLVTVSS VL: QSVLTQPPSVSGAPGQRVTISCTGSSSNIGAGYDVHWYQQLPGTAPKLLIYGNKNRPSGVPDRFSGSKSGTSASLAITGLQAEDEADYYCQSYDTSLSAWVFGGGTKLTVL | binds |
| 4-A8 (antibody, V domains shown) VH: EVQLLESGGGLVQPGGSLRLSCAASGFTFKNYAMSWVRQAPGKGLEWVSAISASGGYTYYADSVKGRFTISRDNSKNTLYLQMNSLRAEDTAVYYCARGRWGAFDYWGQGTLVTVSS VL: QSVLTQPPSVSGAPGQRVTISCTGSSSNIGSGYDVHWYQQLPGTAPKLLIYGNRNRPSGVPDRFSGSKSGTSASLAITGLQAEDEADYYCQSYDSSLKTWVFGGGTKLTVL | binds |
| 4-B1 (antibody, V domains shown) VH: EVQLLESGGGLVQPGGSLKLSCAASGFTFSDYAMSWVRQAPGKGLEWVSGISRGGARTYYADSVKGRFTISRDNSKNTLYLQMNSLRAEDTAVYYCARYLFGHYMDWGQGTLVTVSS VL: QSVLTQPPSVSGAPGQRVTISCTGSSSNIGAGYDVHWYQQLPGTAPKLLIYGNTNRPSGVPDRFSGSKSGTSASLAITGLQAEDEADYYCQSYDGRLGVSVFGGGTKLTVL | binds |
| 4-B2 (antibody, V domains shown) VH: QVQLVESGGGVVQPGRSLRLSCAASGFTFSRYAMHWVRQAPGKGLEWVAVISHSGSTKYYANSVKGRFTISRDNSKNTLYLQMNSLRAEDTAVYYCARSRGWRGFDSWGQGTLVTVSS VL: QSVLTQPPSVSGAPGQRVTISCTGSSSNIGAYVVHWYQQLPGTAPKLLIYGNTNRPSGVPDRFSGSKSGTSASLAITGLQAEDEADYYCQSYDRTLSSYVFGGGTKLTVL | binds |
| 4-B11 (antibody, V domains shown) VH: QVQLVESGGGVVQPGRSLRLSCAASGFAFSGYGMHWVRQAPGKGLEWVAVISHHGSYKYYANSVKGRFTISRDNSKNTLYLQMNSLRAEDTAVYYCARGGADVGYFYSTFYYYMDVWGQGTLVTVSS VL: QSVLTQPPSVSGAPGQRVTISCTGSSSNIGAAFDVHWYQQLPGTAPKLLIYDNYNRPSGVPDRFSGSKSGTSASLAITGLQAEDEADYYCQSYDSSLSVWVFGGGTKLTVL | binds |
| 4-F4 (antibody, V domains shown) VH: QLQLQESGPGLVKPSETLSLTCTVSGGSISSRGYYWAWIKQPPGKGLEWIGSIYYSGSTYYNPSLKSRVTISVDTSKNQFSLKLSSVTAADTAVYYCARLVSYGAYYVFDYWGQGTLVTVSS VL: QSVLTQPPSVSGAPGQRVTISCTGSSSNIGAGYDVHWYQQLPGTAPKLLIYGNRNRPSGVPDRFSGSKSGTSASLAITGLQAEDEADYYCQSYDTRLSAWVFGGGTKLTVL | binds |
| 4-G12 (antibody, V domains shown) VH: EVQLLESGGGLVRPGGSLRLSCAASGFTFSSYAMSWVRQAPGKGLEWVSAISGSGGSTYYADSVKGRFTISRDNSKNTLYLQMNSLRAEDTAVYYCARDKRLTYWGQGTMVTVSS VL: QSVVTQPPSVSAAPGQKVTISCSGSSSNIGNNYVSWYQQLPGTAPKLLIYDNNKRPSGIPDRFSGSKSGTSATLGITGLQTGDEADYYCGTWDSSLSARVFGGGTKVTVL | binds |
| 5-E12 (antibody, V domains shown) VH: EVQLLESGGGLVQPGGSLRLSCAASGFTFSNYAMSWVRQAPGKGLEWVSTISGGGRTTNYADSVKGRFTISRDNSKNTLYLQMNSLRAEDTAVYYCARSTPIPSYYPYIYSYYFDVWGQGTLVTVSS VL: EIVMTQSPATLSVSPGERATLSCRASQSVSNNLAWYQQKPGQAPRLLIYGASTRATGIPARFSGSGSGTEFTLTISSLQSEDFAVYYCQQYGNYPPTFGQGTKVEIK | binds |
| 6-G4 (antibody, V domains shown) VH: EVQLLESGGGLVQPGGSLRLSCAASGFTFSDYAMSWVRQAPGKGLEWVSSISSSGANTYYADSGKGRFTISRDNSKNILYLQMNSLRAEDTAVYYCARSVVTWVTYAFDYWGQGTLVTVSS VL: QSVLTQPPSVSGAPGQRVTISCTGSSSNIGAGYDVHWYQQLPGTAPKLLIYDNTNRPSGVPDRFSGSKSGTSASLAITGLQAEDEADYYCQSYDSGLSGWVFGGGTKLTVL | binds |
| 6-H5 (antibody, V domains shown) VH: EVQLLESGGGLVQPGGSLRLSCAASGFTFSNYAMSWVRQAPGKGLEWVSAISATGGATYYADSVKGRFTISRDNSKNTLYLQMNSLRAEDTAVYYCARSVRERYTYYMDYWGQGTLVTVSS VL: QSVLTQPPSVSGAPGQRVTISCTGSSSNIGAGYDVHWYQQLPGTAPKLLIYDNTNRPSGVPDRFSGSKSGTSASLAITGLQAEDEADYYCQSYDVSLGVWVFGGGTKLTVL | binds |
| 8-A7 (antibody, V domains shown) VH: EVQLLESGGGLVQPGGSLRLSCAASGFTFRNYAMSWVRQAPGKGLEWVSSISGGGINTYYADSVKGRFTISRDNSKNTLYLQMNSLRAEDTAVYYCARVRSYSGPGYFDYWGQGTLVTVSS VL: EIVMTQSPATLSVSPGDRATLSCRASRSVSSNLAWYQQKPGQAPRLLIYGASTRATGIPARFSGSGSGTEFTLTISSLQSEDFAVYYCQQYYNWPLTFGQGTKVEIK | binds |
| 8-A8 (antibody, V domains shown) VH: EVQLLESGGGLVQPGGSLRLSCAASGFTFSNYAMSWVRQAPGKGLEWVSVIYGSGARTYYADSVKGRFTISRDNSKNTLYLQMNSLRAEDTAVYYCARISPHYDFDVWGQGTLVTVSS VL: DIQMTQSPSSLSASVGDRVTITCRASQTISKYLNWYQQKPGKAPKLLIYAASSLQSGVPSRFSGSGSGTDFTLTISSLQPEDFATYYCQQSYSYPITFGQGTKVEIK | binds |
| 8-A9 (antibody, V domains shown) VH: EVQLLESGGGLVQPGGSLRLSCAASGFTFSNYAMSWVRQAPGKGLEWVSAISGGGSRTYYADSVKGRFTISRDNSKNTLYLQMNSLRAEDTAVYYCAREARVLGYSLDYWGQGTLVTVSS VL: DIQMTQSPSSLSASVGDRVTITCRASQRIGKYLNWYQQKPGKAPKLLIYAASSLQSGVPSRFSGSGSGTDFTLTISSLQPEDFATYYCQQSYSYPLTFGQGTKVEIK | binds |
| 8-C4 (antibody, V domains shown) VH: EVQLLESGGGLVQPGGSLRLSCAASGFTFSNYAMSWVRQAPGKGLEWVSAIYGSGGRTYYADSVKGRFTISRDNSKNTLYLQMNSLRAEDTAVYYCARLRYGFYQFDYWGQGTLVTVSS VL: DIQMTQSPSSLSASVGDRVTITCRASQSIRNYLNWYEQKPGKAPKLLIYAASSLQSGVPSRFSGSGSGTDFTLTISSLQPEDFATYYCQQSYSYPLTFGQGTKVEIK | binds |
| 8-C6 (antibody, V domains shown) VH: EVQLLESGGGLVQPGGSLRLSCAASGFTFTDYAMSWVRQAPGKGLEWVSTIYSSGHRTYYADSVKGRFTISRDNSKNTLYLQMNSLRAEDTAVYYCARLYPLHSYAFDHWGQGTLVTVSS VL: DIQMTQSHSSLSASVGDRVTITCRASQSISRYLNWYQQKPGKAPKLLIYAASSLQSGVPSRFSGSGSGTDFTLTISSLQPEDFATYYCQQSYSVPLTFGQGTKVEIK | binds |
| 8-C10 (antibody, V domains shown) VH: EVQLLESGGGLVQPGGSLRLSCAASGFTFSSYAMSWVRQAPGKGLEWVSTISASGATYYADSVKGRFTISRDNSKNTLYLQMNSLRAEDTAVYYCARGPYSYYYYSFDYWGQGTLVTVSS VL: DIQMTQSPSSLSASVGDRVTITCRASQTISTYLNWYQQKPGKAPKLLIYAASSLQSGVPSRFSGSGSGTDFTLTISSLQPEDFATYYCQQSYRYPLTFGQGTKVEIK | binds |
| 8-C11 (antibody, V domains shown) VH: EVQLLESGGGLVQPGGSLRLSCAASGFTFSSYAMSWVRQAPGKGLEWVSTIYVGGHRTYYADSVKGRFTISRDNSKNTLYLQMNSLRAEDTAVYYCARVGWSWGFDPWGQGTLVTVSS VL: DIQMTQSPSSLSASVGDRVTITCRASQTISKYLNWYQQKPGKAPKLLIYSASSLQSGVPSRFSGSGSGTDFTLTISSLQPEDFATYYCQQSYTYPLTFGQGTKVEIK | binds |
| 8-E2 (antibody, V domains shown) VH: QVQLVQSGAEVKKPGSSVKVSCKASGGTFSDEAIHWVRQAPGQGLEWMGRIIPVLGIASYAQKFQGRVTITADESTSTAYMELSSLRSEDTAVYYCARGLSRKAFYFDYWGQGTLVTVSS VL: DIQMTQSPSSLSASVGDRVTITCRASQTIGNYLNWYQQKPGKAPKLLIYVASSLQSGVPSRFSGSGSGTDFTLTISSLQPEDFATYYCQQSYRYPYTFGQGTKVEIK | binds |
| 8-E3 (antibody, V domains shown) VH: EVQLLESGGGLVQPGGSLRLSCAASGFTFSNYAMSWVRQAPGKGLEWVSTIYRGAGTYYADSVKGRFTISRDNSKNTLYLQMNSLRAEDTAVYYCARDASWYGPFSYYYYYGFDVWGQGTLVTVSS VL: EIVMTQSPATLSVSPGERATLSCRASQSVYTNLAWYQQKPGQAPRLLIYDASTRATGIPARFSGSGSGTEFTLTISSLQSEDFAVYYCQQYNDWPLTFGQGTKVEIK | binds |
| 8-F1 (antibody, V domains shown) VH: EVQLLESGGGLVQPGGSLRLSCAASGFTFTDYAMSWVRQAPGKGLEWVSGISGSGGVGTYYADSVKGRFTISRDNSKNTLYLQMNSLRAEDTAVYYCARGEYGSSIAYSYYYGFDVWGQGTLVTVSS VL: EIVMTQSPATLSVSPGERATLSCRASQSVYNNLAWYQQKPGQAPRLLIYDASTRATGIPARFSGSGSGTEFTLTISSLQSEDFAVYYCQQYNDWPYTFGQGTKVEIK | binds |
| 8-F2 (antibody, V domains shown) VH: EVQLLESGGGLVQPGGSLRLSCAASGFTFSNYAMSWVRQAPGKGLEWVSAISGGGSRTYYADSVKGRFTISRDNSKNTLYLQMNSLRAEDTAVYYCAREARVLGYSLDYWGQGTLVTVSS VL: DIQMTQSPSSLSASVGDRVTITCRASQRIGKYLNWYQQKPGKAPKLLIYAASSLQSGVPSRFSGSGSGTDFTLTISSLQPEDFATYYCQQSYSYPLTFGQGTKVEIK | binds |

No constants are given. Whether binding was seen depends on the method and setting. Binding can be weak; no strength is given.
